Data as given in PubChem BioAssay AID720505 (Drosophila RNAi Screening Center, 2013)
In all, the deposit lists about 20,000 reagents; below is a random part of those that have a named target and a result. In the full data, about 2,100 (10%) were called active. 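Raw plate signals without normalisation; calls rest on control-based scores that were not deposited; replicate 2 separates called from uncalled poorly.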 Entries without a mark were called inactive. Not stated in the record: the amount of reagent, the time to read-out.

Test: 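Fly regulators or components of the CRAC channel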 (primary screen)
System: Drosophila S2R+ cells
Knock-down reagent: long dsRNA against Drosophila genes
Treatment: thapsigargin (2 µM) in calcium-free buffer to empty internal stores, then 2 mM calcium added back
Read-out: 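Fluo-4 signal in 384-well plates read on a FLIPR after thapsigargin (2 µM, calcium-free) store depletion and 2 mM calcium add-back; unnormalised mean endpoint per well; screen run twice, selected wells retested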
Scale: calcium signal: higher = more calcium entry after store depletion
Rule for the call: 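About 1500 genes called as lowering calcium entry, by varying amounts, judged against per-plate control wells with STIM1 as positive and Rho1 as negative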
Meaning of the calls: active = called as lowering calcium entry; inactive = not called

Rab27 [DRSC18567]
- calcium signal, replicate 1: 59.6 (active)
- calcium signal, replicate 2: 81

Pex7 (Peroxin 7) [DRSC10651]
- calcium signal, replicate 1: 77.7
- calcium signal, replicate 2: 70.7

Rab11 [DRSC16809]
- calcium signal, replicate 1: 120
- calcium signal, replicate 2: 132

alka (alkaliphile) [DRSC06136]
- calcium signal, replicate 1: 132
- calcium signal, replicate 2: 196

Lam (Lamin) [DRSC03359]
- calcium signal, replicate 1: 76.9
- calcium signal, replicate 2: 90

jeb (jelly belly) [DRSC06305]
- calcium signal, replicate 1: 95.2
- calcium signal, replicate 2: 140

jeb (jelly belly) [DRSC06307]
- calcium signal, replicate 1: 67.7
- calcium signal, replicate 2: 105

Aven (Apoptosis and caspase activation inhibitor) [DRSC19693]
- calcium signal, replicate 1: 75.1
- calcium signal, replicate 2: 102

Trs33 (TRAPP subunit 33) [DRSC15990]
- calcium signal, replicate 1: 114
- calcium signal, replicate 2: 166

CG14082 [DRSC10086]
- calcium signal, replicate 1: 73
- calcium signal, replicate 2: 135

CG6462 [DRSC10641]
- calcium signal, replicate 1: 81.3
- calcium signal, replicate 2: 65.1

CRMP (Collapsin Response Mediator Protein) [DRSC12345]
- calcium signal, replicate 1: 127
- calcium signal, replicate 2: 112

CG8281 [DRSC10976]
- calcium signal, replicate 1: 87.8
- calcium signal, replicate 2: 64.9

sip3 (septin interacting protein 3) [DRSC15402]
- calcium signal, replicate 1: 172
- calcium signal, replicate 2: 137

l(2)k05911 (lethal (2) k05911) [DRSC02523]
- calcium signal, replicate 1: 119
- calcium signal, replicate 2: 156

CG7881 [DRSC04898]
- calcium signal, replicate 1: 109
- calcium signal, replicate 2: 165

orb (oo18 RNA-binding protein) [DRSC17021]
- calcium signal, replicate 1: 112
- calcium signal, replicate 2: 183

orb (oo18 RNA-binding protein) [DRSC23148]
- calcium signal, replicate 1: 109
- calcium signal, replicate 2: 137

CanB (Calcineurin B) [DRSC18449]
- calcium signal, replicate 1: 147
- calcium signal, replicate 2: 79.5

Reformatted: 2 of the entries above
Trs33 (TRAPP subunit 33) [DRSC15990]: calcium signal, replicate 1 = 114; calcium signal, replicate 2 = 166
CG14082 [DRSC10086]: calcium signal, replicate 1 = 73; calcium signal, replicate 2 = 135
